Strings that start with PEPTIDE1 are HELM notation: dots part the residues, brackets hold end groups and non-standard residues.
Assay: general procedure: solution-phase peptide synthesis; 1,3-dicyclohexylcarbodiimide / 4-dimethylaminopyridine (p-nitrophenyl ester)
Conditions: lipidation step

Q: For “PEPTIDE1{[MeOSuc].A.A.P.V.[DOPE]}$$$$V2.0”, which “final purity (method not given)” value (TLC, two solvent systems) is on record?
A: The value was greater than 99%.

Q: What about the step yield (on the basis of DOPE) of the same substance?
A: The step yield was 95% yield.
